According to patent US20190367612A1:
These are yes or no findings as the source states them, for the method shown. Some results given as binding are weak or reduced against the parent protein; the word gives no strength.

Chains of the proteins cited; added tags and fusions are not shown. Lines headed by an entry give the natural chain unless they say otherwise; changes in a name come on top. Residues count along the entry.
UniProt P07766: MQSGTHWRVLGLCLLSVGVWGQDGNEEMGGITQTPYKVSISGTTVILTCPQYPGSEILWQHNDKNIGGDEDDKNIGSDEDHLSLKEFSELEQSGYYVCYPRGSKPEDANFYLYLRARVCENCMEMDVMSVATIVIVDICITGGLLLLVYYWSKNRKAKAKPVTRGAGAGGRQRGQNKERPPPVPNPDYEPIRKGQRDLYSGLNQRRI
UniProt Q95LI5, residues 22-198: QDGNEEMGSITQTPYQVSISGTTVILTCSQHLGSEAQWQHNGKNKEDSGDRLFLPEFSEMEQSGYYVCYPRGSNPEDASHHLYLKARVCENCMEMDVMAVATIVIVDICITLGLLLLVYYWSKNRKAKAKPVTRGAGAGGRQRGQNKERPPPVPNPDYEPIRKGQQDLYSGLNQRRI

B1: anti-GPRC5D-anti-CD3 bispecific molecule C3048-C3E7036 (bispecific antibody)
scFv: GQVQLVQSGAEVKKPGSSVKVSCKASGGTFSRYAISWVRQAPGQGLEWMGGIIPIFGTANYAQKFQGRVTITADQSTRTAYMDLGRLRSEDTAVYYCALEGFRDSLKRNPFDIWGQGTMVTVSSGGGGSGGGGSGGGGSQSVVTQPPSVSAAPGQKVTISCSGGTTNIGSNYVSWYQQLPGTAPKFLMYENNKRPSGIPDRFSGSKSGTSATLAITGLQTGDEATYYCSTWDSSLNTGLFGGGTKLTVLGGGGSEVQLVESGGGLVQPGGSLRLSCAASGVTFNYYGMSWIRQAPGKGLEWVASITNSGGRIYYPDSVKGRFTISRENTQKTLYLQMNSLRAEDTAVYYCTLDGRDGWVAYWGQGTLVTVSSGGGGSGGGGSGGGGSNFMLTQPSSVSGVPGQRVTISCTGNTGNIGSNYVNWYQQLPGTAPKLLIYRDDKRPSGVPDRFSGSKSGTSASLAITGFQAEDEADYYCQSYSSGFIFGGGTKLTVLGAAAGAGGDYKDDDDKGAAAHHHHHH
B2: anti-GPRC5D-anti-CD3 bispecific molecule C3022-C3E7034 (bispecific antibody)
scFv: GQVQLVQSGAEVKKPGASVKVSCKASGYTFTGYYMHWVRQAPGQGLEWMGRINPNSGGTNYAQKFQGRVTMTRDTSISTAYMELSGLRSDDTAVYYCASGSVRHPWGQGTLVTVSSGGGGSGGGGSGGGGSQPVLTQPPSASGTPGQRVTISCSGSRSNIGGNIVSWYQQFPGTAPRLLTYADNQRPSGVPDRFSGSKSGTSASLAISGLQSEDEADYYCAAWDDSLNGVVFGGGTKLTVLGGGGSEVQLVESGGGLVQPGGSLRLSCAASGVTFNYYGMSWIRQAPGKGLEWVASITNSGGRIYYPDSVKGRFTISRENTQKTLYLQMNSLRAEDTAVYYCTLDGRDGWVAYWGQGTLVTVSSGGGGSGGGGSGGGGSNFMLTQPHSVSESPGKTVTISCKRNTGNIGSNYVNWYQQHEGSSPTTIIYRDDKRPDGVSDRFSGSIDRSSKSASLTISNLKTEDEADYFCQSYSSGFIFGGGTKLTVLGAAAGAGGDYKDDDDKGAAAHHHHHH
B3: anti-GPRC5D-anti-CD3 bispecific molecule C3022-C3E7035 (bispecific antibody)
scFv: GQVQLVQSGAEVKKPGASVKVSCKASGYTFTGYYMHWVRQAPGQGLEWMGRINPNSGGTNYAQKFQGRVTMTRDTSISTAYMELSGLRSDDTAVYYCASGSVRHPWGQGTLVTVSSGGGGSGGGGSGGGGSQPVLTQPPSASGTPGQRVTISCSGSRSNIGGNIVSWYQQFPGTAPRLLTYADNQRPSGVPDRFSGSKSGTSASLAISGLQSEDEADYYCAAWDDSLNGVVFGGGTKLTVLGGGGSEVQLVESGGGLVQPGGSLRLSCAASGVTFNYYGMSWIRQAPGKGLEWVASITNSGGRIYYPDSVKGRFTISRENTQKTLYLQMNSLRAEDTAVYYCTLDGRDGWVAYWGQGTLVTVSSGGGGSGGGGSGGGGSMAQAVLTQPSSVSGVPGQRVTISCKRNTGNIGSNYVNWYQQLPGTAPKLLIYRDDKRPSGVPDRFSGSKSGTSASLAITGFQAEDEADYYCQSYSSGFIFGGGTKLTVLGAAAGAGGDYKDDDDKGAAAHHHHHH
B4: anti-GPRC5D-anti-CD3 bispecific molecule C3048-C3E7035 (bispecific antibody)
scFv: GQVQLVQSGAEVKKPGSSVKVSCKASGGTFSRYAISWVRQAPGQGLEWMGGIIPIFGTANYAQKFQGRVTITADQSTRTAYMDLGRLRSEDTAVYYCALEGFRDSLKRNPFDIWGQGTMVTVSSGGGGSGGGGSGGGGSQSVVTQPPSVSAAPGQKVTISCSGGTTNIGSNYVSWYQQLPGTAPKFLMYENNKRPSGIPDRFSGSKSGTSATLAITGLQTGDEATYYCSTWDSSLNTGLFGGGTKLTVLGGGGSEVQLVESGGGLVQPGGSLRLSCAASGVTFNYYGMSWIRQAPGKGLEWVASITNSGGRIYYPDSVKGRFTISRENTQKTLYLQMNSLRAEDTAVYYCTLDGRDGWVAYWGQGTLVTVSSGGGGSGGGGSGGGGSMAQAVLTQPSSVSGVPGQRVTISCKRNTGNIGSNYVNWYQQLPGTAPKLLIYRDDKRPSGVPDRFSGSKSGTSASLAITGFQAEDEADYYCQSYSSGFIFGGGTKLTVLGAAAGAGGDYKDDDDKGAAAHHHHHH
B5: anti-GPRC5D-anti-CD3 bispecific molecule C3022-C3E7036 (bispecific antibody)
scFv: GQVQLVQSGAEVKKPGASVKVSCKASGYTFTGYYMHWVRQAPGQGLEWMGRINPNSGGTNYAQKFQGRVTMTRDTSISTAYMELSGLRSDDTAVYYCASGSVRHPWGQGTLVTVSSGGGGSGGGGSGGGGSQPVLTQPPSASGTPGQRVTISCSGSRSNIGGNIVSWYQQFPGTAPRLLTYADNQRPSGVPDRFSGSKSGTSASLAISGLQSEDEADYYCAAWDDSLNGVVFGGGTKLTVLGGGGSEVQLVESGGGLVQPGGSLRLSCAASGVTFNYYGMSWIRQAPGKGLEWVASITNSGGRIYYPDSVKGRFTISRENTQKTLYLQMNSLRAEDTAVYYCTLDGRDGWVAYWGQGTLVTVSSGGGGSGGGGSGGGGSNFMLTQPSSVSGVPGQRVTISCTGNTGNIGSNYVNWYQQLPGTAPKLLIYRDDKRPSGVPDRFSGSKSGTSASLAITGFQAEDEADYYCQSYSSGFIFGGGTKLTVLGAAAGAGGDYKDDDDKGAAAHHHHHH
B6: anti-GPRC5D-anti-CD3 bispecific molecule C3048-C3E7034 (bispecific antibody)
scFv: GQVQLVQSGAEVKKPGSSVKVSCKASGGTFSRYAISWVRQAPGQGLEWMGGIIPIFGTANYAQKFQGRVTITADQSTRTAYMDLGRLRSEDTAVYYCALEGFRDSLKRNPFDIWGQGTMVTVSSGGGGSGGGGSGGGGSQSVVTQPPSVSAAPGQKVTISCSGGTTNIGSNYVSWYQQLPGTAPKFLMYENNKRPSGIPDRFSGSKSGTSATLAITGLQTGDEATYYCSTWDSSLNTGLFGGGTKLTVLGGGGSEVQLVESGGGLVQPGGSLRLSCAASGVTFNYYGMSWIRQAPGKGLEWVASITNSGGRIYYPDSVKGRFTISRENTQKTLYLQMNSLRAEDTAVYYCTLDGRDGWVAYWGQGTLVTVSSGGGGSGGGGSGGGGSNFMLTQPHSVSESPGKTVTISCKRNTGNIGSNYVNWYQQHEGSSPTTIIYRDDKRPDGVSDRFSGSIDRSSKSASLTISNLKTEDEADYFCQSYSSGFIFGGGTKLTVLGAAAGAGGDYKDDDDKGAAAHHHHHH

molecular target: human CD3 (human) (UniProt P07766); assay: flow cytometry on human PBMC (dead and CD19-positive cells excluded), Penta-His Alexa Fluor 488 detection, rMFI = MFI minus sample without antibody

Row | binding | Binder
1 | binds | B1
2 | binds | B2
3 | binds | B3
4 | binds | B4
5 | binds | B5
6 | binds | B6

molecular target: human CD3 (human) (UniProt P07766); assay: flow cytometry, human PBMC

Row | binding | Binder
7 | binds | B1
8 | binds | B2
9 | binds | B3
10 | binds | B4
11 | binds | B5
12 | binds | B6

molecular target: cynomolgus monkey CD3 (cynomolgus monkey) (UniProt Q95LI5); assay: flow cytometry on cynomolgus monkey PBMC, Penta-His Alexa Fluor 488 detection, rMFI = MFI minus sample without antibody

Row | binding | Binder
13 | binds | B1
14 | binds | B2
15 | binds | B3
16 | binds | B4
17 | binds | B5
18 | binds | B6

molecular target: cynomolgus monkey CD3 (cynomolgus monkey) (UniProt Q95LI5); assay: flow cytometry, cynomolgus monkey PBMC

Row | binding | Binder
19 | binds | B1
20 | binds | B2
21 | binds | B3
22 | binds | B4
23 | binds | B5
24 | binds | B6
